Test results published in US11925667B2, “Engineered therapeutic probiotic system and method” (priority 2018, dated 2024).
For part of these data: The name of at least one read-out is uncertain. Some results were stated once for a whole list of compounds, not compound by compound.

Legend:
[1] = system: various colorectal, gastric and breast cancer cell lines; assay: Growth inhibition (MTT), summary over cancer cell lines; format: cell-based
Description: Cell culture and toxicity assay. While HCT116 human colorectal carcinoma cells (ATCC, Manassas, USA), LoVo human colorectal adenocarcinoma cells (ATCC), AGS human gastric adenocarcinoma cells (ATCC), MCF7 human breast adenocarcinoma cells (ATCC), human esophageal smooth muscle primary cells (SMCs) (Cell Biologics, Chicago, USA) and CT26 mouse colorectal carcinoma cells (ATCC) are used according to the claimed invention, other illustrative cell lines may similarly be utilized. Cells are cleared of mycoplasma contamination prior to use using Mycoalert™ PLUS mycoplasma detection kit (Lonza). HCT116 cells are cultured in McCoy's 5A medium, LoVo and AGS cells in Ham's F12 medium, MCF7 cells in DMEM medium, CT26 cells in RPMI medium, and SMCs in the specific medium kit purchased from Cell Biologics. […]
The MTT readout is fitted to a dose-response curve to determine the GI50 value (Eq. 2). Absorbance (570 nm)=Bottom+(Top−Bottom)/(1+10^(([Inhibitor]−Log 10 GI50))) (Eq. 2) HlpA binding assay. […] The cancer 394 cells are washed twice with 1×PBS and measured for DAPI and RFP emission. The fluorescence emission is compared on the linear standard curve of stained cells against the average fluorescence emission to determine the binding ratio of E. coli to cancer cells.

[2] = system: myrosinase Q9 (plant-derived myrosinase orthologue); assay: Myrosinase activity assay (glucose release from sinigrin hydrolysis), Q9; format: biochemical
Method: Screening for improved β-thioglucosidase. The activity and stability of myrosinase, a β-thioglucosidase that hydrolyzes glucosinolate to sulforaphane, varies at differing pH and temperature; in a preferred embodiment the selected enzyme needs to function under physiological colorectal conditions. The healthy colon pH averages 6.6, while it is 7.0 and 6.7 in patients with adenoma and carcinoma, respectively. In addition, the temperature of the human intestinal tract ranges from 36° C. to 40° C. depending on the individual's metabolic state. […]
Myrosinase screening assay. The enzymatic reaction is measured for the release of glucose resulting from sinigrin hydrolysis. […] The reaction can be measured at 560 nm absorbance and fluorescence (λex=540 nm, λem=590 nm) using a Synergy H1 Multi-Mode microtiter plate reader (BioTek®, Winooski, USA). The reaction initial velocity (VO) is determined and fitted into a Michaelis-Menten curve. Vmax and KM are determined by fitting into the Michaelis-Menten equation (Eq. 1) using GraphPad Prism Software. ^v=Vmax*[Sinigrin]/(KM+[Sinigrin]) (Eq.1) […]

C=CCN=C=S [AITC, allyl isothiocyanate]
full inhibitory effect (time) [1]: ≤ 24 h

C=CC/C(=N/OS(=O)(=O)O)S[C@@H]1O[C@H](CO)[C@@H](O)[C@H](O)[C@H]1O [sinigrin]
Km ([2]; pH 7.4, 34° C.): 1300 ± 280 µM | Km ([2]; pH 7.4, 37° C.): 130 ± 9 µM
